This note sets out measurements from ChEMBL document CHEMBL5500403, “Discovery of a Double-Stapled Short Peptide as a Long-Acting HIV-1 Inactivator with Potential for Oral Bioavailability” (J Med Chem, 2024).

Each structure is given as a SMILES string.

A short description of this data set: Apparent permeability in human Caco-2 cells at 5 uM. It is filed as ADME, cell-based. In general terms: Caco-2 monolayers are a common model of the intestinal barrier.

Regarding `CC(C)NCC(O)COc1cccc2ccccc12` (stereo unspecified) [PROPRANOLOL], the Papp at 5 µM stood at 28.5 ×10⁻⁶ cm/s.

Usually Papp stands for the rate of passage across a membrane or cell layer, normalised by area and donor concentration.
